According to the supplement of paper PMC8426693:
The other results are listed elsewhere or left out.

Tests used:
Assay in all cases: NMR binding call after quantification (hit when 2 of 3 NMR criteria are met) (binary (1 = binding, 0 = not binding)); higher = binding
Conditions in all cases: RNA concentration 10 µM; fragment concentration 200 µM; 293 K
SARS-CoV-2 3'-UTR RNA = system: SARS-CoV-2 3'-UTR RNA
SARS-CoV-2 3_SL1 RNA = system: SARS-CoV-2 3_SL1 RNA
SARS-CoV-2 3_SL1+2 RNA = system: SARS-CoV-2 3_SL1+2 RNA
SARS-CoV-2 3_SL2 RNA = system: SARS-CoV-2 3_SL2 RNA
SARS-CoV-2 3_SL3base RNA = system: SARS-CoV-2 3_SL3base RNA
SARS-CoV-2 3_s2m RNA = system: SARS-CoV-2 3_s2m RNA
SARS-CoV-2 5'-UTR RNA = system: SARS-CoV-2 5'-UTR RNA
SARS-CoV-2 5_SL1 RNA = system: SARS-CoV-2 5_SL1 RNA
SARS-CoV-2 5_SL1234 RNA = system: SARS-CoV-2 5_SL1234 RNA
SARS-CoV-2 5_SL2+3 RNA = system: SARS-CoV-2 5_SL2+3 RNA
SARS-CoV-2 5_SL4 RNA = system: SARS-CoV-2 5_SL4 RNA
SARS-CoV-2 5_SL5 RNA = system: SARS-CoV-2 5_SL5 RNA
SARS-CoV-2 5_SL5a RNA = system: SARS-CoV-2 5_SL5a RNA
SARS-CoV-2 5_SL5b+c RNA = system: SARS-CoV-2 5_SL5b+c RNA
SARS-CoV-2 5_SL5stem RNA = system: SARS-CoV-2 5_SL5stem RNA
SARS-CoV-2 5_SL6 RNA = system: SARS-CoV-2 5_SL6 RNA

Measured: NMR binding call

CCC(=O)Nc1ccc(S(N)(=O)=O)cc1
0: all assays above

CCOc1ccc(NC(=O)c2cnccn2)cc1
0: all assays above

O=C(Nc1nnc[nH]1)c1cccnc1Cl
0: all assays above

Cc1cc(C(=O)NC(C)C)on1
0: all assays above

COc1ccccc1NC(=O)c1ccc(C)s1
0: all assays above

Cc1cccc(Nc2ncnc3c2cnn3C)c1
0: all assays above

COc1cccc2c1CCCC(=O)N2
0: all assays above

CC(C)(O)CN1CCC(N)C1 (stereo unspecified)
0: all assays above

CCCn1c(NC(=O)CC)nc2ccccc21
0: all assays above

C1CC(CNC2CC2)CO1 (stereo unspecified)
0: all assays above

Fc1cccnc1NCC1CCOCC1
0: all assays above

CNC(=O)CN(C)C1CCCCCC1
0: all assays above

O=C(c1ccc2c(c1)OCO2)N1CCCCCC1
0: all assays above

CNS(=O)(=O)Cc1cc(C)on1
0: all assays above

c1cnc(NC2CCCCCC2)nc1
0: all assays above

CNC(=O)CN1CCNCC1
0: all assays above

CC(=O)NCCc1ccccc1C
0: all assays above

Sorted by number of heavy atoms (rising): eight of the compounds above
C1CC(CNC2CC2)CO1 (stereo unspecified)
0: all assays above

CNC(=O)CN1CCNCC1
0: all assays above

CNS(=O)(=O)Cc1cc(C)on1
0: all assays above

CC(=O)NCCc1ccccc1C
0: all assays above

COc1cccc2c1CCCC(=O)N2
0: all assays above

CCC(=O)Nc1ccc(S(N)(=O)=O)cc1
0: all assays above

COc1ccccc1NC(=O)c1ccc(C)s1
0: all assays above

Cc1cccc(Nc2ncnc3c2cnn3C)c1
0: all assays above

The list continues:

CCOc1ccc(C(C)N)cc1.Cl (stereo unspecified)
0: all assays above

COCC(=O)NCc1ccccc1
0: all assays above

CC(C)NC(=O)N(C)Cc1cnn(C)c1
0: all assays above

COc1ccc(NC2=NCCN2)cc1
0: all assays above

CCS(=O)(=O)Nc1ccccc1F
0: all assays above

NC(=S)Nc1ccccc1OC(F)(F)F
0: all assays above

Cc1ccc(CC(=O)NCC2CCCO2)cc1 (stereo unspecified)
0: all assays above

CN1CCN(C(=O)C2CCCN2)CC1 (stereo unspecified)
0: all assays above

CC1(C)CN(C(=O)CC(F)(F)F)CCO1
0: all assays above

Cc1cc(N(C)C2CC(O)C2)nc(C)n1 (stereo unspecified)
0: all assays above

CCCc1nnc(NC(=O)c2ccccn2)s1
1: SARS-CoV-2 5'-UTR RNA
0: all other assays above

CCNCc1cn(C)nn1
0: all assays above

N#CCC(=O)N1CCC(C(N)=O)CC1
0: all assays above

Cc1c(C(=O)NCC2CCC2)cnn1C
0: all assays above

CC(=O)NC(C(=O)O)C1CCOCC1 (stereo unspecified)
0: all assays above

CC1C(O)CCCN1Cc1ccccc1 (stereo unspecified)
0: all assays above

COc1cc(CN)cc(OC)c1OC.Cl
0: all assays above

CC(O)CCn1cccn1 (stereo unspecified)
0: all assays above

CC(=O)Nc1ccc(OC(=O)N2CCCC2)cc1
0: all assays above
